Measured values: PMC11648165
Construct, isoform or probe ends are uncertain for at least one entry.

Test system: MBP-CsbHLH1 (Camellia sinensis)
Assay: EMSA
Settings: EMSA on 6% polyacrylamide gel in TBE; binding buffer, pH and temperature not stated; recombinant protein; protein details: MBP, Ni-NTA purified

“ATAAGTGTCATGTGTCTCAAAATTATGAATTTATCTAGCTCAGTAAGTG (double strand) [CsTCS1 promoter probe (-971 to -1019)]”: binds.
